Data source: PubChem BioAssay AID602196 (INSERM, 2012)

- Screen: 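Knock-downs that protect lung cancer cells from cisplatin or sensitise them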
- System: human A549 lung cancer cells
- Knock-down reagent: siRNA pair against human genes
- Time to read-out: 48 h transfection before cisplatin; time from cisplatin to read-out not stated
- Conditions: cisplatin at a dose killing half of control-siRNA cells; exact dose and duration not given
- Measured: 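Shift in cisplatin death relative to control siRNA, from -50 (all cells die) to +50 (no cells die); siRNAs harmful on their own scored 0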
- Scale: two-siRNA summed score (-2 to +2): higher = both siRNAs protect from cisplatin killing; -2 means both sensitise; mean protection from cisplatin (shift in death) and protection from cisplatin (shift in death), siRNA C and protection from cisplatin (shift in death), siRNA D: higher = protection from cisplatin killing
- Call rule: 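Each siRNA scores 0 if harmful alone by LDH or WST-1, otherwise +1 if it reduces and -1 if it increases cisplatin killing; a gene is active when both siRNAs agree (sum +2 or -2)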
- Calls: active = both siRNAs shift cisplatin killing the same way; inactive = no consistent shift, or siRNA harmful alone
The whole screen tested about 23,000 reagents; below is a part drawn at random. 455 of them (2%) were called active. 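Active includes both protection and sensitisation; some change values fall well beyond the stated -50 to +50 range.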 Not given: the amount of reagent.

no.	gene symbol	two-siRNA summed score (-2 to +2)	mean protection from cisplatin (shift in death) (%)	protection from cisplatin (shift in death), siRNA C (%)	protection from cisplatin (shift in death), siRNA D (%)	Outcome
1	KLHDC7A	1	13.7	12.9	14.4	inactive
2	RPA3	-2	-12.9	-16.5	-9.2	active
3	ASIC1	0	17.2	37.9	-3.5	inactive
4	SLC29A3	0	11.3	9.9	12.8	inactive
5	DCBLD1	0	11.2	14.8	7.6	inactive
6	ATP5F1C	0	6	14	-2.1	inactive
7	POTEG	0	5.8	12	-0.4	inactive
8	LRCH4	0	0.7	0	1.5	inactive
9	FKBP15	-1	-15.6	-18	-13.2	inactive
10	MBTPS2	-1	-9.5	-0.3	-18.8	inactive
11	POLM	0	-9.3	-21.7	3.1	inactive
12	PRDM8	0	-10.5	-7.2	-13.7	inactive
13	KISS1R	0	2.7	-10	15.4	inactive
14	GTPBP6	1	8.9	18.6	-0.8	inactive
15	WBSCR23	0	-12.8	-13.6	-12	inactive
16	ACHE	-1	-17.4	2.7	-37.5	inactive
17	HAGHL	0	7.1	2.1	12.2	inactive
18	APTX	0	-4.7	-6.9	-2.6	inactive
19	GET1P1	0	5.8	20.6	-9	inactive
20	PDCD5	-1	-5.5	0.7	-11.7	inactive
21	ARHGAP10	0	7.1	7.8	6.5	inactive
22	ABHD15	0	7.4	6.5	8.3	inactive
23	ARL2	1	14	34	-5.9	inactive
